Some results were stated once for a whole list of compounds, not compound by compound.
System: Candida albicans
Experiment: Fungal susceptibility test, broth microdilution MIC
Type: cell-based
Conditions: microdilution assay
Method: Fungal susceptibility test—The fungal susceptibility test was carried out with a compound concentration series as described. Li et al., “Cisplatin Protects Mice From Challenge of Cryptococcus neoformans by Targeting the Prp8 Intein,” Emerging Microbes & Infections 8(1):895-908 (2019), which is hereby incorporated by reference in its entirety. The broth microdilution method was used to determine the compound MIC values against C. neoformans. In brief, serial 2-fold dilutions of the 6G-318SS (20 to 0.03 μg/ml) were made in 100 μl RPMI-1640 medium with MOPS in 96-well U-bottom plates. The C. neoformans H99 strain (100 μl of 0.5×10^5/ml) in log phase was added to each well. […] The MIC break-point was defined as no visible fungal growth by naked eye or by determining the 90% growth inhibition using absorbance at 630 nm, compared with no inhibitor control in a 96-well plate.
C. albicans, a fungus without the Prp8 intein, was also used as a control.

Structure (SMILES)	MIC Candida albicans [µg/mL]
O=C(Nc1ccc(F)cc1)c1nnsc1S(=O)(=O)c1ccc(Cl)cc1 [6G-318S, 5-[(4-chlorophenyl)sulfonyl]-N-(4-fluorophenyl)-1,2,3-thiadiazole-4-carboxamide]	> 5
O=C(Nc1ccc(F)cc1F)c1nnsc1S(=O)(=O)c1ccc(Cl)cc1 [6G-319S, 5-((4-Chlorophenyl)sulfonyl)-N-(2,4-difluorophenyl)-1,2,3-thiadiazole-4-carboxamide]	> 5

Source: patent US20230233533A1, “COMPOSITIONS, METHODS OF TREATING AND PREVENTING FUNGAL INFECTIONS, AND METHODS OF INHIBITING PRP8 INTEIN EXPRESSION” (Health Research, Inc., priority 2020, published 2023)
